Data from PubChem BioAssay AID2685 (National Center for Advancing Translational Sciences (NCATS), 2010).
Some of the results follow. These are further read-outs of the screen, such as a control signal, another cell line or another target. No call is given for them. The list favours compounds with an active or inconclusive main result. Words in brackets tell the shape of the fitted curve; partial curves, single points and poor fits give uncertain potencies.

Assay: qHTS Assay for Lipid Storage Modulators in Drosophila S3 Cells;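 on cell number change: cells counted by Cell Tracker Red CMTPX staining in the red channel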
Settings: BODIPY lipid droplet fluorescence, 18-24 h; for cell number change: measured here: cell count max response, cells fed with added oleic acid
Summary of the method: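 Drosophila S3 cells got compounds at several concentrations plus oleic acid (400 uM solution). Laser-scanning cytometry with 488 nm excitation read lipid droplets at 500-530 nm and cells at 575-640 nm. Percent activity was relative to 20 uM Triacsin C.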

[1] = measured here: lipid fluorescence (Fed channel) AC50, cells fed with added oleic acid
[2] = measured here: cell number channel AC50, cells fed with added oleic acid

Row | Compound | cell number change | AC50 [1] | AC50 [2]
1 | C/C(N)=C(/C#N)C(=O)CSc1nnc(NC(C)C)s1 | 19.9% | 8.2 µM [rising, partial curve] | –
2 | Cc1ccccc1OCCCCn1c(CO)nc2ccccc21 | -33.3% | 29.1 µM [falling, single point] | 23.1 µM [falling, single point]
3 | Cc1cc(-c2ccccc2)[nH]c(=O)c1C#N | -28% | – | –
4 | Cc1cccc(NC(=O)CN2CCN(CC(=O)NCC3(N4CCCCC4)CCCCC3)CC2)c1C | -7.23% | – | –
5 | Cc1oc2cc(OCc3cnn(-c4ccccc4)c3)ccc2c(=O)c1Oc1ccccc1F | 11.7% | 1.03 µM [rising, single point] | –
6 | COC(=O)c1ccccc1C(=O)c1cccc2ccccc12 | -39.5% | – | 14.6 µM [falling, single point]
7 | CC(=O)Nc1ccc(C2=NN(c3ccccc3)C(c3ccccc3)C2)cc1 (configuration not stated) | -18.8% | 7.31 µM [falling, partial curve, poor fit] | –
8 | CC1=C(C(=O)Nc2cc(C)ccc2C)C(c2cccs2)NC(=S)N1 (configuration not stated) | -10.4% | 6.51 µM [rising, single point] | –
9 | COc1ccc(-c2c[n+]3c4n2CCCCC4=C(c2ccccc2)C3)cc1 | -36.2% | 18.4 µM [falling, single point] | 25.9 µM [falling, single point]
10 | CCn1c(SCC(N)=O)nc2cc(S(=O)(=O)N3CCOCC3)ccc21 | – | 0.00411 µM [rising, partial curve, poor fit] | –
11 | CC[C@@H](C)[C@H](CNC)NC[C@@H](Cc1cccc2ccccc12)NCCc1cccc(C(F)(F)F)c1 | -18.9% | 29.1 µM [falling, single point] | –
12 | O=C(CSc1nncc(=O)[nH]1)NCc1ccccc1 | 5.93% | 1.3 µM [rising, full curve, poor fit] | –
13 | Cc1noc(C)c1CSCC(=O)Oc1ccc(N(C)S(=O)(=O)c2ccccc2)cc1 | -0.226% | 0.00517 µM [falling, full curve, poor fit] | –
14 | CCc1ccc(NC(=O)CN2CCc3ccccc3C2)cc1 | 8.38% | 0.58 µM [falling, single point] | 7.31 µM [rising, single point]
15 | O=C(NCCN1C(=O)S/C(=C\c2ccc(OC(F)F)cc2)C1=O)c1cnccn1 | 9.73% | 23.1 µM [rising, partial curve] | –
16 | Cc1ccc(CN(C(=O)C(F)(F)F)C(C(=O)NC2CCCCC2)c2ccco2)cc1 (configuration not stated) | -18.5% | 18.4 µM [falling, single point] | –

Shown field by field: entries from further up
COc1ccc(-c2c[n+]3c4n2CCCCC4=C(c2ccccc2)C3)cc1
  cell number change: -36.2%
  AC50 [1]: 18.4 µM [falling, single point]
  AC50 [2]: 25.9 µM [falling, single point]
CCn1c(SCC(N)=O)nc2cc(S(=O)(=O)N3CCOCC3)ccc21
  AC50 [1]: 0.00411 µM [rising, partial curve, poor fit]
